Source: PubChem BioAssay AID493014 (National Center for Advancing Translational Sciences (NCATS), 2011)
This is one part of the list. The main result of the screen is listed elsewhere. These columns were measured beside it and carry no call. Most of these compounds were active or inconclusive in the main read-out, so they are no random draw. The note in brackets gives the kind of curve behind each potency; many fits are weak.

Test: qHTS Assay to Find Inhibitors of Chronic Active B-Cell Receptor Signaling
Conditions: ABC-DLBCL IkBa-CBG/CBR reporter, luminescence ratio (green luciferase fused to IkBa over red control in TMD8 lymphoma cells), 4 h
Summary of the method: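 Compounds up to 46 uM were incubated four hours with TMD8 cells whose green CBG68 luciferase is fused to IkappaBalpha; red CBR luminescence normalised the signal, and concentration-effect curves were fitted to fusion, red and ratio data.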

[1] = measured here: CBR red luminescence, cell number
[2] = measured here: IkBa-CBG green luminescence

O=C(Nc1cccc2ccccc12)c1ccc(Cn2cc(Cl)cn2)cc1
AC50 [1]: 11.2 µM [falling, partial curve, poor fit]

COc1ccc(C2=CC(c3cc(OC)c(OC)c(OC)c3)NC(=S)N2)cc1 (stereo unspecified)
AC50 [1]: 2.31 µM [rising, partial curve]

COc1cccc(CN(C)C(=O)c2[nH]c(C)c(C(C)=O)c2C)c1OC
AC50 [1]: 17.8 µM [rising, single point]

CCOC(=O)Cn1nnc(-c2ccccc2)n1
AC50 [1]: 23.1 µM [rising, partial curve, poor fit]

CCCCCCCN(C(=O)CCl)c1ccccc1C
AC50 [1]: 11.6 µM [falling, partial curve]

COc1ccc(CNC(=O)CCCn2ncn3c(cc4occc43)c2=O)cc1
AC50 [1]: 4.47 µM [rising, single point]

C=CCn1cc(C(=O)OC)c(=O)c2cc(S(=O)(=O)N3CCCCCC3)ccc21
AC50 [1]: 20 µM [falling, partial curve, poor fit]

O=C1CCCC1C(=O)Nc1ccc2ccccc2c1 (stereo unspecified)
AC50 [1]: 1 µM [falling, full curve]

CC(=O)N1CCC(N(CCN2CCOCC2)C(=S)Nc2ccc(C)c(C)c2)CC1
AC50 [1]: 11.2 µM [rising, partial curve]

CC(C)(C)c1ccc(C(=O)CCC(=O)NCc2ccccc2)cc1
AC50 [1]: 29.1 µM [rising, partial curve, poor fit] | AC50 [2]: 29.1 µM [falling, partial curve, poor fit]

CCS(=O)(=O)n1nc(-c2ccccc2)nc1SCc1ccccc1
AC50 [1]: 10.3 µM [falling, partial curve, poor fit]

c1ccc(-c2nc(-n3ccnc3)nc(-n3ccnc3)n2)cc1
AC50 [1]: 5.8 µM [falling, partial curve]

COc1ccc(C2C(C#N)=C(N)Oc3n[nH]c(C)c32)cc1CN1CCN(c2ccc(F)cc2)CC1 (stereo unspecified)
AC50 [1]: 20 µM [falling, partial curve, poor fit]

CCN(CC)CCN(C(=O)c1ccc(Br)s1)c1nc2cc3c(cc2s1)OCCO3
AC50 [1]: 10 µM [falling, partial curve, poor fit]

Cc1ccc(-c2nnn(CC(=O)N(CC(=O)NC3CCCC3)c3cnc4ccccc4c3)n2)o1
AC50 [1]: 18.4 µM [rising, single point]

COc1ccc(C(C(=O)NCc2ccccc2)N(Cc2ccc3c(c2)OCO3)C(=O)c2cnccn2)cc1 (stereo unspecified)
AC50 [1]: 18.4 µM [rising, single point]

CCn1cc(C2=NC(C)CO2)c2ccccc21 (stereo unspecified)
AC50 [1]: 8.2 µM [rising, partial curve, poor fit]

Clc1ccc2nc(CSc3nc4ccccc4o3)cn2c1
AC50 [1]: 3.26 µM [rising, partial curve, poor fit]

O=C(Cc1cccc2ccccc12)OCn1nnc2ccccc2c1=O
AC50 [1]: 16.4 µM [falling, single point]

COc1ccc(C(C)=O)cc1COC(=O)CNC(=O)c1ccc(F)cc1
AC50 [1]: 18.4 µM [rising, partial curve]

CCOC(=O)CCc1c(C(=O)OCC)[nH]c(CC)c1C(=O)OCc1ccccc1
AC50 [1]: 15.8 µM [falling, partial curve, poor fit]

CCOC(=O)Cn1c(=NC(=O)CSC(C)=O)sc2cc(OC)ccc21
AC50 [1]: 1.16 µM [falling, full curve, poor fit]

CC1(C)CC(=O)C(C=Nc2ccc(O)cc2)=C(O)C1
AC50 [1]: 12.6 µM [falling, partial curve, poor fit]

FC(F)(F)c1ccc(-n2cn[nH]c2=S)cc1
AC50 [1]: 31.6 µM [rising, single point]

COc1cc(/C=C/C(=O)O)cc(S(=O)(=O)NNC(=O)c2ccc3c(c2)OCO3)c1OC
AC50 [1]: 2.06 µM [falling, full curve, poor fit]

COc1ccccc1NC(=S)NCCSc1ccc(C)cc1
AC50 [1]: 2.91 µM [falling, partial curve, poor fit]

Cc1ccc(S(=O)(=O)N2CCCCC2CCNC(=O)C(=O)Nc2ccccc2F)cc1 (stereo unspecified)
AC50 [1]: 4.61 µM [falling, partial curve]

Cc1ccc(C)c(N2CCN(C(=O)c3ccc(CSc4nc5ccncc5[nH]4)cc3)CC2)c1
AC50 [1]: 29.1 µM [falling, single point]

COc1ccc(/C=C2\CN(Cc3ccccc3)C/C(=C\c3ccc(OC)c(O)c3)C2=O)cc1O
AC50 [1]: 35.5 µM [falling, single point]

CCC(C)(C(=O)NC1CCCCC1)N(Cc1ccco1)C(=O)CC1NC(=O)NC1=O (stereo unspecified)
AC50 [1]: 6.51 µM [falling, single point]

Cn1c(CN2CCCC2)nc2cc(NC(=O)Nc3ccccc3)ccc21
AC50 [1]: 14.6 µM [falling, partial curve, poor fit]

CS(=O)(=O)c1cccc(NC(=O)c2ccc(Cl)c(Cl)c2)c1
AC50 [1]: 2.82 µM [rising, full curve]

Cc1cc(C2=CC(C)(c3cc(C)oc3C)Nc3nc(C(F)(F)F)nn32)c(C)o1 (stereo unspecified)
AC50 [1]: 15.8 µM [falling, partial curve]

Cc1cc(C)cc(NC(=O)CSc2nccn2Cc2ccco2)c1
AC50 [1]: 5.62 µM [falling, full curve]

O=C(CCCN1C(=O)c2ccccc2C1=O)OC1CSCC1NC(=O)c1ccccc1 (stereo unspecified)
AC50 [1]: 2.24 µM [rising, partial curve, poor fit]

O=C(O)C1CCC(c2ccc(-c3ccccc3)cc2)CC1 (stereo unspecified)
AC50 [1]: 0.1 µM [falling, full curve, poor fit]

CC(C)(C=O)Cc1cc(C(C)(C)C)c(O)c(C(C)(C)C)c1
AC50 [1]: 29.1 µM [rising, partial curve, poor fit]

c1ccc(-c2ccc(SCc3cccnc3)nn2)nc1
AC50 [1]: 12.6 µM [falling, partial curve, poor fit]

COc1ccc(-c2sc3cc4c(cc3c2C#Cc2cncn2C)OCO4)cc1
AC50 [1]: 32.6 µM [rising, partial curve, poor fit]

CCOC(=O)N(C)OC(=O)Nc1ccc(Cl)c(Cl)c1
AC50 [1]: 5.01 µM [rising, full curve]

Cc1cc(NC(=O)CSc2nc(-c3cccs3)cc(C(F)(F)F)n2)no1
AC50 [1]: 6.51 µM [rising, single point]

Cc1cc2ccccn2c1C(=O)Nc1ccc(Cl)cc1
AC50 [1]: 35.5 µM [falling, single point]

C[C@@]12C(=O)Nc3cc(F)ccc3C(=O)N1[C@H]1c3ccccc3OC[C@@H]1[C@@H]2c1ccccc1
AC50 [1]: 1.16 µM [falling, full curve]

CCOc1ccc(NC(=O)C2CC(=O)NC(N3CCc4ccccc43)=N2)cc1 (stereo unspecified)
AC50 [1]: 1.84 µM [rising, partial curve, poor fit]

CC1(C)ON(C2CCCCC2)[C@H]2c3nc4ccccc4n3C[C@H]21
AC50 [1]: 12.6 µM [falling, partial curve]

CC(C)n1c(=S)[nH]c2ccccc2c1=O
AC50 [1]: 35.5 µM [falling, single point] | AC50 [2]: 22.4 µM [falling, single point]

COc1cc(C(O)c2nc3ccccc3s2)cc(OC)c1OC (stereo unspecified)
AC50 [2]: 14.1 µM [falling, partial curve, poor fit]

CCCOc1cccc(C(=O)N/N=C/c2coc3ccccc3c2=O)c1
AC50 [1]: 2.24 µM [falling, partial curve, poor fit]

CCN1CCN(CC(=O)Nc2cccc(C)c2C)C(=O)C1=O
AC50 [1]: 0.517 µM [rising, partial curve, poor fit]

CCOC(=O)c1c(NC(=O)CSc2nc3ccccc3[nH]2)sc2c1CC(C)(C)NC2(C)C
AC50 [1]: 32.6 µM [falling, single point]

CC(=O)Cn1cnc2sc(-c3ccccc3)cc2c1=O
AC50 [1]: 11.6 µM [falling, partial curve]

O=C(O)c1cccc(NC(=O)c2ccc(N3C(=O)c4ccc(C(=O)Nc5cccc(C(=O)O)c5)cc4C3=O)cc2)c1
AC50 [1]: 1.26 µM [falling, full curve, poor fit]

O=C(Nc1ccc(F)cc1)C(Sc1nc2ccccc2[nH]1)c1ccccc1 (stereo unspecified)
AC50 [1]: 1.03 µM [rising, partial curve, poor fit]

COc1ccc(NC(=O)C#Cc2ccccc2)cc1
AC50 [1]: 14.1 µM [falling, single point]

C=CCn1c(NC(=O)c2ccccc2Cl)c(C#N)c2nc3ccccc3nc21
AC50 [1]: 25.1 µM [rising, single point] | AC50 [2]: 22.4 µM [falling, single point]

Cc1ccnc(NC(=O)COc2ccc3c(c2)CCC3)c1
AC50 [1]: 6.51 µM [falling, full curve]

O=C(Nc1ccc2sccc2c1)c1ccc(Cl)s1
AC50 [1]: 25.9 µM [falling, partial curve, poor fit]

O=C(NCCc1c[nH]c2ccccc12)c1ccc2c(c1)OCO2
AC50 [1]: 3.55 µM [falling, partial curve, poor fit]

C/C(=N\NC(=O)c1ccc(NS(=O)(=O)c2cccs2)cc1)c1ccccc1
AC50 [1]: 16.4 µM [falling, partial curve]

O=C(Nc1ccccc1C(=O)O)c1ccc2ccccc2n1
AC50 [1]: 0.891 µM [falling, full curve]

COc1ccc(CN2CCN(Cc3ccc(C)cc3)CC2)c(OC)c1
AC50 [1]: 17.8 µM [rising, partial curve, poor fit]

COc1ccc(S(=O)(=O)N(C)CC(=O)NCc2ccco2)cc1OC
AC50 [1]: 35.5 µM [rising, single point]

c1ccc(COc2cccc(CNCc3ccccn3)c2)cc1
AC50 [1]: 0.398 µM [rising, partial curve, poor fit]
